Results are given in words; binding and its absence hold for the method and conditions named. Some binding calls cover weakened binding; strength is not graded here. Where a sequence is shown, tags or fusion partners need not be part of it.
B1: Anti-EpCAM-VHH SEQ ID NO 1 VHH-hFc融合蛋白 (Fc fusion, not shown: a dimerising Fc or GST)
chain: DVQLVESGGGSVQSGGSLRLSCAASGYTYRRYYMGWFRQAPGEQREGVAVINNDGRTNYADSVKGRFRISRDNAENTLHLEMNSLKPEDTAMYYCAATGNILPPMTAVPPLGRQWYPYWGRGTLVTVSS
B2: Anti-EpCAM-VHH SEQ ID NO 4 VHH-hFc融合蛋白 (Fc fusion, not shown: a dimerising Fc or GST)
chain: QVQLVESGGGSVQAGGSLRLSCVATGFTISRKCMGWFREAPGKKREVIATINTGSSSPYYADGVKGRFTISQDNAKNTVYLQMNSLKPEDTAMYYCAATKGVVVGTGYCGGPYVERPNSAYWGQGTQVTVSS
B3: Anti-EpCAM-VHH SEQ ID NO 9 VHH-hFc融合蛋白 (Fc fusion, not shown: a dimerising Fc or GST)
chain: HVQLVESGGGSVQSGGSLRLSCAVSGYAYSSLAWFRQAPGKEREGVAALLTAIGGPTRTTYADSVKGRLAISQDHAKNTLYLQMSSLKPEDTAMYYCAAGRPAGTPRWLLLAPRDYNYWGQGTQVTVSS
B4: Anti-EpCAM-VHH SEQ ID NO 8 VHH-hFc融合蛋白 (Fc fusion, not shown: a dimerising Fc or GST)
chain: EVQLVESGGDSVQAGGSLRLSCAASGYSPGSYCMGWFRQAPGKERERVAIIESRGTVTYVDSVKGRFTISKDNAKNTLYLQMNSLKPEDTAMYYCAASRPWSGVRCLHDKYDYWGQGTQVTVSS
B5: Anti-EpCAM-VHH SEQ ID NO 5 VHH-hFc融合蛋白 (Fc fusion, not shown: a dimerising Fc or GST)
chain: DVQLVESGGGSVQAGRSLRLSCELSDYTWSTVCMGWFRQAPGKEREGVAVIYTRSGGTTYADSAKGRFTISRDNAKDTLYLQMDSLKPEDTAMYYCAAGPLYDGRCTYRSPAFHYWGQGTQVTVSS
B6: Anti-EpCAM-VHH SEQ ID NO 3 VHH-hFc融合蛋白 (Fc fusion, not shown: a dimerising Fc or GST)
chain: QVQLVESGGGSVQAGGSLRLSCVVSAYSAYTYKTMCMGWFRQAPGKEREGVAAIYRGGLNTYYADSVKGRFIISRDNAESTMYLQMNSLKPEDTAMYYCAADWLRGDDCNIGANFDYWGQGTQVTVSS
B7: Anti-EpCAM-VHH SEQ ID NO 6 VHH-hFc融合蛋白 (Fc fusion, not shown: a dimerising Fc or GST)
chain: DVQLVESGGGSAQAGGSLRLSCAASGPTSSLRTMGWFRQASGKERERVAVIWDGRTTDYDDSVQDRFTISQDNAKSTVYLQMNTLKPEDTAMYYCAASPRIVPFASTYFQHWGQGTQVTVSS
B8: Anti-EpCAM-VHH SEQ ID NO 7 VHH-hFc融合蛋白 (Fc fusion, not shown: a dimerising Fc or GST)
chain: HVQLVESGGGSVQAGGSLKLSCAASGSIFSGSIFSRCGMRWYRQAPGKERELVSSTSKDGFTSYTDSVKGRFTISQDNANNTLYLQMSSLKTEDTAVYSCAAICAVGGYSLSTYTYWGQGTQVTVSS
B9: Anti-EpCAM-VHH SEQ ID NO 2 VHH-hFc融合蛋白 (Fc fusion, not shown: a dimerising Fc or GST)
chain: HVQLVESGGGSVQSGGSLRLSCAASGYAVKNCMGWFRQAPGKEREGVAVINRNGITTYADSVKGRFTISQDKDKNTLDLQMNSLKPEDTAMYYCAATPTLLTIPARFLCDVRNPSGFTDWGQGTLVTVSS

Biological target: T1, EpCAM-His蛋白 (UniProt P16422)
T1 sequence (looked up): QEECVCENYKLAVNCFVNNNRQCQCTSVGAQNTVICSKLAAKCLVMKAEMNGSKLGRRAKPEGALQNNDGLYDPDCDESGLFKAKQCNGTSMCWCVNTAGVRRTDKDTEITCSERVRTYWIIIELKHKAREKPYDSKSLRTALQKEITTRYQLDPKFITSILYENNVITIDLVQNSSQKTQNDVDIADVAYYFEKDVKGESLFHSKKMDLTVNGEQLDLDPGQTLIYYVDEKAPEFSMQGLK
Experiment: ELISA, EpCAM-His coated, VHH-hFc titrated, anti-hFc-HRP

binding, binds:
B1
B2
B3
B4
B5
B6
B7
B8
B9

Source: patent CN115894704A
